Results deposited as PubChem BioAssay AID1259315 (Drosophila RNAi Screening Center, 2017).

Assay: 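Fly genes changing cellular ATP after a day in high zinc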 (primary screen)
Cell system: Drosophila S2R+ cells
Knock-down reagent: long dsRNA against Drosophila genes
Duration: 5 days (4 days knock-down, then 1 day with zinc)
Challenge: zinc chloride added to 15 mM final for 1 day
Detection: 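ATP luminescence reflecting cell viability after 4 days of knock-down then 1 day with 15 mM zinc chloride; mean z-score of two replicate plates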
Reading the numbers: mean ATP z-score: higher = more ATP, more cells surviving zinc
Call rule: 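Hit when the mean ATP z-score exceeds 1.5 or falls below -1.5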
In all, the deposit lists 418 reagents; below is an unselected part. 17 of them (4.1%) count as active. 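z-scores average two replicate plates; all hits raised ATP and none lowered it.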 Not given: the amount of reagent.

target gene | DRSC id | mean ATP z-score | Call
Vps4 (GeneID 32777) | DRSC19338 | 6.67 | active
Vps4 (GeneID 32777) | DRSC25068 | 2.52 | active
Vps4 (GeneID 32777) | DRSC31082 | 0.00405 | inactive
Vha100-2 (GeneID 42216) | DRSC14152 | 0.325 | inactive
Vha100-2 (GeneID 42216) | DRSC29227 | 0.526 | inactive
Daao1 (GeneID 36128) | DRSC06131 | -0.29 | inactive
Vps16A (GeneID 41107) | DRSC16422 | -0.00925 | inactive
Vps16A (GeneID 41107) | DRSC36082 | -0.257 | inactive
CG7402 (GeneID 39994) | DRSC10839 | -0.127 | inactive
Dci (GeneID 38100) | DRSC08360 | -0.243 | inactive
Dci (GeneID 38100) | DRSC28929 | -0.376 | inactive
Pex1 (GeneID 45460) | DRSC11358 | -0.199 | inactive
ATP6AP2 (GeneID 41104) | DRSC16420 | -0.233 | inactive
ATP6AP2 (GeneID 41104) | DRSC35549 | 0.0216 | inactive
ATP6AP2 (GeneID 41104) | DRSC39882 | -0.379 | inactive
CG31661 (GeneID 33330) | DRSC00296 | -0.109 | inactive
CG31661 (GeneID 33330) | DRSC28732 | -0.369 | inactive
CG9886 (GeneID 33431) | DRSC00732 | -0.214 | inactive
CG9886 (GeneID 33431) | DRSC40409 | -0.336 | inactive
CG9886 (GeneID 33431) | DRSC41580 | -0.171 | inactive
ClC-b (GeneID 36381) | DRSC07220 | -0.17 | inactive
ClC-b (GeneID 36381) | DRSC37711 | -0.407 | inactive
ClC-b (GeneID 36381) | DRSC39990 | -0.4 | inactive
Pex13 (GeneID 36462) | DRSC06877 | -0.404 | inactive
Pex13 (GeneID 36462) | DRSC40208 | -0.475 | inactive
Pex13 (GeneID 36462) | DRSC40344 | -0.29 | inactive
Npc1b (GeneID 33072) | DRSC20488 | -0.21 | inactive
Npc1b (GeneID 33072) | DRSC36136 | -0.29 | inactive
Npc1b (GeneID 33072) | DRSC39575 | -0.353 | inactive
Lerp (GeneID 43223) | DRSC14751 | 0.0229 | inactive
Lerp (GeneID 43223) | DRSC16030 | -0.204 | inactive
Lerp (GeneID 43223) | DRSC16031 | -0.0317 | inactive
Vha100-4 (GeneID 42214) | DRSC16282 | -0.328 | inactive
Vha100-4 (GeneID 42214) | DRSC26139 | -0.123 | inactive
Vha100-5 (GeneID 34587) | DRSC26439 | -0.285 | inactive
Vha100-5 (GeneID 34587) | DRSC30649 | -0.324 | inactive
Vha100-5 (GeneID 34587) | DRSC30650 | -0.168 | inactive
Vps36 (GeneID 39523) | DRSC09785 | -0.0588 | inactive
Vps36 (GeneID 39523) | DRSC37364 | -0.231 | inactive
Vha16-5 (GeneID 34482) | DRSC02986 | -0.259 | inactive
Vha16-5 (GeneID 34482) | DRSC35452 | -0.0924 | inactive
Vha16-5 (GeneID 34482) | DRSC35453 | -0.148 | inactive
AP-1mu (GeneID 41150) | DRSC14089 | -0.452 | inactive
AP-1mu (GeneID 41150) | DRSC25744 | -0.614 | inactive
Pmvk (GeneID 35255) | DRSC02032 | -0.311 | inactive
Pmvk (GeneID 35255) | DRSC36851 | -0.253 | inactive
Vps13 (GeneID 35693) | DRSC06817 | -0.0613 | inactive
Vps13 (GeneID 35693) | DRSC29275 | -0.161 | inactive
Vps13 (GeneID 35693) | DRSC35042 | -0.15 | inactive

The list goes on, starting with the last 2 of the part before.
target gene | DRSC id | mean ATP z-score | Call
Vps13 (GeneID 35693) | DRSC29275 | -0.161 | inactive
Vps13 (GeneID 35693) | DRSC35042 | -0.15 | inactive
Muc11A (GeneID 32174) | DRSC29295 | -0.282 | inactive
vsg (GeneID 39137) | DRSC25227 | -0.174 | inactive
Acox3 (GeneID 33898) | DRSC03251 | -0.278 | inactive
Acox3 (GeneID 33898) | DRSC23799 | -0.253 | inactive
CG3902 (GeneID 40059) | DRSC10387 | 4.71 | active
CG3902 (GeneID 40059) | DRSC24267 | -0.187 | inactive
CG10474 (GeneID 37211) | DRSC05993 | -0.0269 | inactive
Vha55 (GeneID 41550) | DRSC26184 | 0.235 | inactive
Vha55 (GeneID 41550) | DRSC31689 | -0.0669 | inactive
Vha55 (GeneID 41550) | DRSC31690 | -0.273 | inactive
Vps45 (GeneID 41153) | DRSC16398 | 0.0831 | inactive
Vps45 (GeneID 41153) | DRSC34819 | -0.196 | inactive
Vps45 (GeneID 41153) | DRSC37502 | -0.235 | inactive
CG10194 (GeneID 35231) | DRSC02025 | -0.141 | inactive
Daao2 (GeneID 33955) | DRSC02135 | 0.0217 | inactive
Vha16-1 (GeneID 44307) | DRSC05020 | 0.65 | inactive
Vha16-1 (GeneID 44307) | DRSC32228 | 0.486 | inactive
Vha16-1 (GeneID 44307) | DRSC32229 | -0.0149 | inactive
Pex11c (GeneID 42751) | DRSC14677 | -0.132 | inactive
LManII (GeneID 34437) | DRSC01986 | -0.201 | inactive
hay (GeneID 39202) | DRSC11354 | 2.18 | active
hay (GeneID 39202) | DRSC35779 | 4.24 | active
hay (GeneID 39202) | DRSC37557 | 1.13 | inactive
ACC (GeneID 35761) | DRSC07249 | 0.747 | inactive
ACC (GeneID 35761) | DRSC30763 | 1.01 | inactive
ACC (GeneID 35761) | DRSC30764 | 0.445 | inactive
